Laboratory results reported in publication PMC8211909.
No constants are given. Whether binding was seen depends on the method and setting. In cells and extracts the contact can be indirect. Some binding calls cover weakened binding; strength is not graded here.

T1: WWOX (endogenous, phosphorylation state not told) (mouse (endogenous in mouse organs)) (UniProt Q91WL8)
T1 sequence: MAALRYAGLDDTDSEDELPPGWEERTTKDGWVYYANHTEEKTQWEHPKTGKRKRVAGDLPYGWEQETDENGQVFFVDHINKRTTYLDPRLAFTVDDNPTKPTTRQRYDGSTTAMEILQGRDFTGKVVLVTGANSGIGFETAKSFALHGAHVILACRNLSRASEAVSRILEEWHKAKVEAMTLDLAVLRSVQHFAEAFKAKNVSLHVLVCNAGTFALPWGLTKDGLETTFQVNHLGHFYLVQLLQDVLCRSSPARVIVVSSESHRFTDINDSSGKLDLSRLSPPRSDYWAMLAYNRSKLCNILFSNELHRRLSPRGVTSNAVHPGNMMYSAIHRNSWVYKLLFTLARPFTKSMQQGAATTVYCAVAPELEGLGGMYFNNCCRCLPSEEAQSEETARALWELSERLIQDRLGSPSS

T2: Flotillin-2 (mouse (endogenous in mouse liver and spleen)) (UniProt Q60634)
T2 sequence: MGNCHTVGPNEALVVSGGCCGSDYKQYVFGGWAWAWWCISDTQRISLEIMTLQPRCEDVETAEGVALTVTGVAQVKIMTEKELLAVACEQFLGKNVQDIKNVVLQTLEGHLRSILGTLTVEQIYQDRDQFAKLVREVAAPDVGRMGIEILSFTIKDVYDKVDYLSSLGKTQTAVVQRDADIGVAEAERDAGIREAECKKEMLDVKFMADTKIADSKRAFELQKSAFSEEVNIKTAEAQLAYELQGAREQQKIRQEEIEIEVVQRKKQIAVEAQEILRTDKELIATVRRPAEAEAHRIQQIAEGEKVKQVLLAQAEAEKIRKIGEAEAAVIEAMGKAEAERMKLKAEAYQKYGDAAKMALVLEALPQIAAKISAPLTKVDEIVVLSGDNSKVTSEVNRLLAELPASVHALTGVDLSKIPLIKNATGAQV

T3: pY33-WWOX (mouse (endogenous in mouse liver and spleen)) (UniProt Q91WL8)
T3 sequence (chain, phosphotyrosine at 33): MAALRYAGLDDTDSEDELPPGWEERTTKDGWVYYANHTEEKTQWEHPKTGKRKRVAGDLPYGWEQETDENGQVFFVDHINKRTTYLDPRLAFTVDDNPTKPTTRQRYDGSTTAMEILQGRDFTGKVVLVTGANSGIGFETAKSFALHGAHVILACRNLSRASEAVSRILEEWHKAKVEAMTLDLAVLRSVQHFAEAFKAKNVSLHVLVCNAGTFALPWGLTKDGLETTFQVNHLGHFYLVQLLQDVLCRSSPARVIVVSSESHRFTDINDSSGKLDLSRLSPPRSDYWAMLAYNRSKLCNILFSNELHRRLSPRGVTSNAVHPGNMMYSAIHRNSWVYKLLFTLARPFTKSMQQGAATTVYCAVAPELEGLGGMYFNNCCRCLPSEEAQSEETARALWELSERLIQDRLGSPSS

T4: pY287-WWOX (mouse (endogenous in mouse liver)) (UniProt Q91WL8)
T4 sequence (chain, phosphotyrosine at 287): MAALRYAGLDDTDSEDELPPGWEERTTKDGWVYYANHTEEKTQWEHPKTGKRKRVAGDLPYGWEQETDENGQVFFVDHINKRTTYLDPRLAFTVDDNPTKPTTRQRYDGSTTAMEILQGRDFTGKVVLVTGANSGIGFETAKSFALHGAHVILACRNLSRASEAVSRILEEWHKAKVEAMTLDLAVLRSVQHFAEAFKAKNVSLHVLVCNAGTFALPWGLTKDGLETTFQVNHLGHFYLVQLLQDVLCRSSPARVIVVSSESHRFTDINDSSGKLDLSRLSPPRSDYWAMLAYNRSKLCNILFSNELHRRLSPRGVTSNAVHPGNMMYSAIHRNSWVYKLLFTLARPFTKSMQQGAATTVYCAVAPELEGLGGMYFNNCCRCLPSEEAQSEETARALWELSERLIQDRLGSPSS


Columns and labels:
[1] = biological target: T1, WWOX (endogenous, phosphorylation state not told) (mouse (endogenous in mouse organs)); assay: co-IP; endogenous proteins of spleen of BALB/c mice given Zfra4-10 and/or WWOX7-21 or WWOX7-11 peptide and 4T1 cells
[2] = biological target: T1, WWOX (endogenous, phosphorylation state not told) (mouse (endogenous in mouse organs)); assay: co-IP; endogenous proteins of mouse liver (lipid raft; 3-month-old wild type and Wwox heterozygous mice; BALB/c mice given Zfra4-10 and/or WWOX7-21 peptide and 4T1 cells), specific WWOX antibodies
[3] = biological target: T2, Flotillin-2 (mouse (endogenous in mouse liver and spleen)); assay: co-IP; endogenous proteins of spleen of BALB/c mice given Zfra4-10 and/or WWOX7-21 or WWOX7-11 peptide and 4T1 cells
[4] = biological target: T3, pY33-WWOX (mouse (endogenous in mouse liver and spleen)); assay: as above
[5] = biological target: T2, Flotillin-2 (mouse (endogenous in mouse liver and spleen)); assay: co-IP; endogenous proteins of mouse liver (lipid raft; 3-month-old wild type and Wwox heterozygous mice; BALB/c mice given Zfra4-10 and/or WWOX7-21 peptide and 4T1 cells), specific WWOX antibodies
[6] = biological target: T4, pY287-WWOX (mouse (endogenous in mouse liver)); assay: as above

Row | binding [1] | binding [2] | binding [3] | binding [4] | binding [5] | binding [6] | Binder
1 | binds | binds | – | – | – | – | Flotillin-2 (protein, UniProt Q60634 1-428) MGNCHTVGPNEALVVSGGCCGSDYKQYVFGGWAWAWWCISDTQRISLEIMTLQPRCEDVETAEGVALTVTGVAQVKIMTEKELLAVACEQFLGKNVQDIKNVVLQTLEGHLRSILGTLTVEQIYQDRDQFAKLVREVAAPDVGRMGIEILSFTIKDVYDKVDYLSSLGKTQTAVVQRDADIGVAEAERDAGIREAECKKEMLDVKFMADTKIADSKRAFELQKSAFSEEVNIKTAEAQLAYELQGAREQQKIRQEEIEIEVVQRKKQIAVEAQEILRTDKELIATVRRPAEAEAHRIQQIAEGEKVKQVLLAQAEAEKIRKIGEAEAAVIEAMGKAEAERMKLKAEAYQKYGDAAKMALVLEALPQIAAKISAPLTKVDEIVVLSGDNSKVTSEVNRLLAELPASVHALTGVDLSKIPLIKNATGAQV
2 | – | – | binds | binds | binds | binds | Hyal-2 (protein, UniProt O35632 21-448) GELKPTAPPIFTGRPFVVAWNVPTQECAPRHKVPLDLRAFDVKATPNEGFFNQNITTFYYDRLGLYPRFDAAGTSVHGGVPQNGSLCAHLPMLKESVERYIQTQEPGGLAVIDWEEWRPVWVRNWQEKDVYRQSSRQLVASRHPDWPSDRVMKQAQYEFEFAARQFMLNTLRYVKAVRPQHLWGFYLFPDCYNHDYVQNWESYTGRCPDVEVARNDQLAWLWAESTALFPSVYLDETLASSVHSRNFVSFRVREALRVAHTHHANHALPVYVFTRPTYTRGLTGLSQVDLISTIGESAALGSAGVIFWGDSEDASSMETCQYLKNYLTQLLVPYIVNVSWATQYCSWTQCHGHGRCVRRNPSANTFLHLNASSFRLVPGHTPSEPQLRPEGQLSEADLNYLQKHFRCQCYLGWGGEQCQRNYKGAAGN
